In article PMC9887063:
Results are given in words; binding and its absence hold for the method and conditions named. Binding seen in cells or lysates may run through a third protein. Some results given as binding are weak or reduced against the parent protein; the word gives no strength. Values belong to the molecule of their own block, whether it stands above or below them.

How the values were obtained:
[1] = target: T1, TRAF6 (tumor necrosis factor receptor-associated factor 6), endogenous in adipocytes (mouse (endogenous in adipocytes)) (UniProt P70196); assay: co-IP; endogenous proteins in TNF-α (60 ng/ml; 30 min)-treated adipocytes, Flox or TRPM7 knockout/knockdown, with or without clamping of intracellular Ca2+; 1 mg lysate protein immunoprecipitated with the indicated antibodies at 4 °C overnight, Protein A/G Agarose, western blot
T1 sequence: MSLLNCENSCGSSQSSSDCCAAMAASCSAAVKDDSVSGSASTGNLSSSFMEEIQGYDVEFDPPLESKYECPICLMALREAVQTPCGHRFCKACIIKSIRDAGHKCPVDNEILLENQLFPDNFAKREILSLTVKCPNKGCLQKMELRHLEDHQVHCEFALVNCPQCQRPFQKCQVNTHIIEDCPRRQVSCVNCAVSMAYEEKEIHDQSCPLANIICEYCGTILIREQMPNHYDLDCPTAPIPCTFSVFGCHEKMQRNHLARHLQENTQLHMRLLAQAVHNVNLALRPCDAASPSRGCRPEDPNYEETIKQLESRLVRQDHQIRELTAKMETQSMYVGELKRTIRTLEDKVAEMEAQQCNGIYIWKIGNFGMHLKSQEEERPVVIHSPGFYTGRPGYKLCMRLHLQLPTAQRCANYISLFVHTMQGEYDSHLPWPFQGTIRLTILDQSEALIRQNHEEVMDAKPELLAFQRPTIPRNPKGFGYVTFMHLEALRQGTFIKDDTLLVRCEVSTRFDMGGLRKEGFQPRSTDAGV

[2] = target: T2, transforming growth factor-β activated kinase 1 (TAK1), endogenous in adipocytes (mouse (endogenous in adipocytes)) (UniProt Q62073); assay: as above
T2 sequence: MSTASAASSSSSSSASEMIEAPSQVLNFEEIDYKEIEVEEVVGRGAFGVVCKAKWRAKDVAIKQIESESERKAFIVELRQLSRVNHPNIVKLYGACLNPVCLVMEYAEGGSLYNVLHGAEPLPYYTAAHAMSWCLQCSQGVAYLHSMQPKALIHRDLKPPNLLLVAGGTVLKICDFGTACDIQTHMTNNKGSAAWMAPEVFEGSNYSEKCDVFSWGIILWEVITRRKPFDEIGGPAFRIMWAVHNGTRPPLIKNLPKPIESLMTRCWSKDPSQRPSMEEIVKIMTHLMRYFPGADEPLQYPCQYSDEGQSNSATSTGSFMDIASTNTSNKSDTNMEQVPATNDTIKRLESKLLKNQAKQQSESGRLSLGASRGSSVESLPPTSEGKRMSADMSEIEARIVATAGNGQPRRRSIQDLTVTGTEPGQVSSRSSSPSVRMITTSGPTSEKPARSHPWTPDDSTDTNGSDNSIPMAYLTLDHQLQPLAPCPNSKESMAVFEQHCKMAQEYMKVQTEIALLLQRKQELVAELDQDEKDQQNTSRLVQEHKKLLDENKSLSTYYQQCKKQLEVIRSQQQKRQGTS

Molecule: c-Cbl, endogenous in adipocytes (from UniProt P22682 1-913)
binding [1]: binds

binding [2]: binds
B1: TRAF6 (tumor necrosis factor receptor-associated factor 6), endogenous in adipocytes (protein, UniProt P70196 1-530)
chain: T1 sequence
